The data set is described as follows: self-splicing fitness, log relative to wild type (ln ratio); higher = more splicing; Tetrahymena group I intron in knt gene, E. coli kanamycin selection, DiMSum; sequences stand for … in CUCUCU…GGAGGGAAAAGUUAUCAGGCAUGCACCUGGUAGCUAGUCUUUAAACCAAUAGAUUGCAUCGGUUUAAAAGGCAAGACCGUCAAAUUGCGGGAAAGGGGUCAACAGCCGUUCAGUACCAAGUCUCAGGGGAAACUUUGAGAUGGCCUUGCAAAGGGUAUGGUAAUAAGCUGACGGACAUGGUCCUAACCACGCAGCCAAGUCCUAAGUCAACAGAUCUUCUGUUGAUAUGGAUGCAGUUCACAGACUAAAUGUCGGUCGGGGAAGAUGUAUUCUUCUCAUAAGAUAUAGUCGGACCUCUCCUUAAUGGGAGCUAGCGGAUGAAGUGAUGCAACACUGGAGCCGCUGGGAACUAAUUUGUAUGCGAAAGUAUAUUGAUUAGUUUUGGAGUACUCGUGGUCG
A digest of the protocol: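 The eight P1ex-region nucleotides of an intron in the knt kanamycin-resistance gene on pET-22b(+) were all randomised and the library put into E. coli BL21(DE3). Six replicate transformations were grown overnight at 37°C or 30°C on LB agar with or without 25 μg/mL kanamycin, together with 100 μg/mL carbenicillin, 50 μM IPTG and 0.2% rhamnose. Colonies were pooled and amplicon-sequenced on an Illumina HiSeq 2500. Fitness from DiMSum is the error-weighted combination of wild-type-normalised replicate fold changes, kanamycin over none.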

± gives the uncertainty stated by the source. The uncertainty is large for many entries.

For the sequence GCUGAGCAAUAUUACGGACC, the “self-splicing fitness (ln)” value runs as follows: (30 °C) -0.413 ± 0.76; (37 °C) 1.15 ± 1.1.
In the case of UCCAAGCAAUAUUACGGCUC, the “self-splicing fitness (ln)” value is -3.84 ± 0.37 (30 °C) and -2.85 ± 0.62 (37 °C).
On the same counts, the results for AGCUAGCAAUAUUACGAAGU are -4.06 ± 0.32 and -1.73 ± 0.26.
As to GAGGAGCAAUAUUACGUCAC, the “self-splicing fitness (ln)” value (37 °C) was -2.71 ± 0.61.
Turning to CGUGAGCAAUAUUACGCUUU, the “self-splicing fitness (ln)” value is, setting by setting: (30 °C) -2.54 ± 0.35; (37 °C) -1.98 ± 0.28.
On the same counts, the results for CUGGAGCAAUAUUACGAGGU are -3.48 ± 0.23 and -2.11 ± 0.17.
UAGCAGCAAUAUUACGUUAC: the “self-splicing fitness (ln)” value (30 °C) was -5.27 ± 0.58.
With AUCAAGCAAUAUUACGCCCG, the “self-splicing fitness (ln)” value runs as follows: (30 °C) -0.965 ± 0.17; (37 °C) -0.202 ± 0.2.
CCGGAGCAAUAUUACGAAAA: under “30 °C”, the “self-splicing fitness (ln)” value is -3.6 ± 0.75.
In the case of GUAGAGCAAUAUUACGGCGG, the “self-splicing fitness (ln)” value is, setting by setting: (30 °C) -1.86 ± 0.12; (37 °C) -1.99 ± 0.18.
As for UAUUAGCAAUAUUACGCUAA, the “self-splicing fitness (ln)” value (30 °C) was -3.13 ± 1.
Regarding CGGUAGCAAUAUUACGGGUU, the “self-splicing fitness (ln)” value (30 °C) is -3.51 ± 0.21 and the “self-splicing fitness (ln)” value (37 °C) was -3.67 ± 0.22.
Take CUGGAGCAAUAUUACGAAAC: the “self-splicing fitness (ln)” value reads like this: (30 °C) -3.01 ± 0.56; (37 °C) -1.08 ± 0.83.
In the same order, the values of CCUAAGCAAUAUUACGGUAA are -2.48 ± 0.24 and -2.73 ± 0.25.
For CUAAAGCAAUAUUACGGCUC, where the note is “37 °C”, the “self-splicing fitness (ln)” value is -3.01 ± 0.53.
Consider AACCAGCAAUAUUACGGACC, for which the “self-splicing fitness (ln)” value is, setting by setting: (30 °C) 0.38 ± 0.1; (37 °C) -0.273 ± 0.11.
For ACAGAGCAAUAUUACGUGCC, the “self-splicing fitness (ln)” value (37 °C) is -3.9 ± 1.
Same read-out and setting: in the case of CUAUAGCAAUAUUACGUAAA it was -2.72 ± 0.61.
Regarding GUUGAGCAAUAUUACGCCGC, the “self-splicing fitness (ln)” value reads like this: (30 °C) -3.06 ± 0.44; (37 °C) -2.15 ± 0.5.
Take CGAAAGCAAUAUUACGGGUG: the “self-splicing fitness (ln)” value reads like this: (30 °C) 0.0165 ± 0.043; (37 °C) 0.189 ± 0.063.
As for GGUGAGCAAUAUUACGAACU, where the note is “37 °C”, the “self-splicing fitness (ln)” value is -1.88 ± 1.2.
Same read-out and setting: in the case of UUUGAGCAAUAUUACGGUGG it was -2.54 ± 1.1; in that of GUUUAGCAAUAUUACGCACG, 0.181 ± 0.84.
In the case of UACGAGCAAUAUUACGUCAA, under “30 °C”, the “self-splicing fitness (ln)” value is -3.26 ± 0.63.
For AUAUAGCAAUAUUACGCCUC, the “self-splicing fitness (ln)” value (30 °C) is -3.06 ± 0.54.
Consider UACCAGCAAUAUUACGUAAG, for which the “self-splicing fitness (ln)” value was -3.73 ± 0.15 (30 °C) and -1.99 ± 0.15 (37 °C).
CGUAAGCAAUAUUACGUCGC: the “self-splicing fitness (ln)” value (30 °C) is -1.29 ± 0.83.
Consider CCCUAGCAAUAUUACGAACG, for which the “self-splicing fitness (ln)” value reads like this: (30 °C) -3 ± 0.21; (37 °C) -2.59 ± 0.29.
For the sequence CGUGAGCAAUAUUACGAGUA, the “self-splicing fitness (ln)” value (30 °C) was -2.35 ± 0.62.
Still for that read-out and setting: in the case of CCGAAGCAAUAUUACGGUAC it was -4.23 ± 0.73; in that of UCGCAGCAAUAUUACGGUAC, -2.94 ± 0.61.
Turning to CCACAGCAAUAUUACGCUAC, the “self-splicing fitness (ln)” value was -3.95 ± 0.6 (30 °C) and -2.33 ± 0.56 (37 °C).
As for AUUGAGCAAUAUUACGACUG, the “self-splicing fitness (ln)” value (30 °C) was -3.63 ± 0.52.
Same read-out and setting: in the case of CCAUAGCAAUAUUACGGAGC it was -4.61 ± 0.72.
As for CAUGAGCAAUAUUACGCUUU, the “self-splicing fitness (ln)” value (30 °C) is -4.58 ± 0.51 and the “self-splicing fitness (ln)” value (37 °C) is -3.02 ± 0.24.
As for GAUAAGCAAUAUUACGCUCC, the “self-splicing fitness (ln)” value (37 °C) was -2.19 ± 0.56.
On to UUUGAGCAAUAUUACGCCUC, for which the “self-splicing fitness (ln)” value reads like this: (30 °C) -2.53 ± 0.62; (37 °C) -0.879 ± 0.39.
In the same order, the values of GGAAAGCAAUAUUACGCUCC are -3.18 ± 0.54 and -0.693 ± 1.4.
For UGAUAGCAAUAUUACGACGC, the “self-splicing fitness (ln)” value (30 °C) is -3.89 ± 1.
For GGGGAGCAAUAUUACGCCUC, the “self-splicing fitness (ln)” value is -2.81 ± 1.1 (30 °C) and -3.96 ± 0.73 (37 °C).
With AAGUAGCAAUAUUACGCAAA, under “30 °C”, the “self-splicing fitness (ln)” value was -2.62 ± 0.52.
With CCAGAGCAAUAUUACGCACU, the “self-splicing fitness (ln)” value (37 °C) was -3.59 ± 0.73.
Regarding UGGGAGCAAUAUUACGAAGU, the “self-splicing fitness (ln)” value (30 °C) is -4.5 ± 1.
Consider GAUUAGCAAUAUUACGCAUC, for which, under “37 °C”, the “self-splicing fitness (ln)” value is -3.6 ± 0.73.
Regarding AGUUAGCAAUAUUACGGCGC, the “self-splicing fitness (ln)” value reads like this: (30 °C) -0.53 ± 0.22; (37 °C) 0.14 ± 0.33.
With GCAUAGCAAUAUUACGACGG, the “self-splicing fitness (ln)” value (30 °C) is -2.5 ± 0.63.

The values are drawn from the supplement of paper PMC7877785.
